Test results from paper PMC10356794.

What was measured:
[1] = target: transferrin receptor protein 1 (Tfr1), endogenous in C3H10T1/2-derived adipocytes (mouse (endogenous in C3H10T1/2)) (UniProt Q62351); experiment: proximity labelling; BioID as above, read by immunoblot of the streptavidin pulldown of membrane-associated proteins; controls BirA* alone and secreted Sp-BirA*-flag
[2] = target: T1, P2x purinoceptor 4, endogenous in C3H10T1/2-derived adipocytes (mouse (endogenous in C3H10T1/2)) (UniProt Q9JJX6); experiment: proximity labelling; BioID: conditioned medium of HEK293T cells with Musclin-BirA* (control BirA*) plus 80 uM biotin on fully differentiated C3H10T1/2 adipocytes for 24 h; membrane-associated proteins pulled down with streptavidin agarose at 4 C overnight; differential gel bands identified by mass spectrometry
T1 sequence: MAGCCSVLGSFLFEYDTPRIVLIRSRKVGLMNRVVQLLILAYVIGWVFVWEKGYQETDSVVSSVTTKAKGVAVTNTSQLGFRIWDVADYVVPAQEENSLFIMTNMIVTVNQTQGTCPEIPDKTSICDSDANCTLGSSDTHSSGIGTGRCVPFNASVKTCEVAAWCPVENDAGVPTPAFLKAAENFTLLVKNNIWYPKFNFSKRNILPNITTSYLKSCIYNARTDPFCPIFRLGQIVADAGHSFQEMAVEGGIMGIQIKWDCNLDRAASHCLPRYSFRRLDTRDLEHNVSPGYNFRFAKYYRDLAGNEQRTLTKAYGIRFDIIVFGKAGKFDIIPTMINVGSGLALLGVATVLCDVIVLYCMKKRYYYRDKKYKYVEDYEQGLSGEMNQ

[3] = target: transferrin receptor protein 1 (Tfr1), endogenous in C3H10T1/2-derived adipocytes (mouse (endogenous in C3H10T1/2)) (UniProt Q62351); experiment: as above

Measured: binding

B1: Musclin-BirA* (Musclin and BirA* fusion protein) (ligand, UniProt P61364 26-130)
chain: FSVDLASQEFGTASLQSPPTAREEKSATELSAKLLRLDDLVSLENDVFETKKKRSFSGFGSPLDRLSAGSVEHRGKQRKAVDHSKKRFGIPMDRIGRNRLSSSRG
binds: all assays above

No constants are given. Whether binding was seen depends on the method and setting. In cells and extracts the contact can be indirect. These calls come from enrichment with a bait or labelling near it, and not all partners need be listed. Where a sequence is shown, tags or fusion partners need not be part of it.
